# Assay results taken from PubChem BioAssay AID272 (DTP/NCI, 2004).
# The list shows only some results of the screen, not a fair sample: it gathers tests that were run many times, whatever their T/C, doses with no T/C, and many T/C values between a quarter and a half above the control. Other doses and runs of a compound stand elsewhere. T/C: endpoint of the treated group in % of that of the vehicle group. Some doses have a count of surviving animals in place of a T/C: the source holds a T/C of zero for them, seemingly a mark for toxic or unscored doses. Some doses without a T/C left all or most animals alive at the check, yet need not have been tolerated: the source hardly ever lists a survival T/C far under the control, and the zero likely stands for such cases as well. Counts of survivors are from the toxicity check (mostly the fifth day) where no day follows; animals may have died later. Schedule codes are those of the source, read here as Q, the interval in days (D) or hours (H), X, the number of doses. Some entries hold several experiments; the values are given in rising order. Where survival is the endpoint, this PubChem deposit counts one and a half times the control or more as active, and values a quarter to a half above the control carry no call in these data; other NCI protocols may use other cut-offs. Some T/C values carry the count of animals alive at the toxicity check (mostly the fifth day); where none is given, no animal had died by that day. Starred links: 1 amine or outer side, 2 acyl side, 3 side chain; linkers in the order of their positions; H or OH if unused. Positions of bridges follow the written chain, without caps; N, C: chain ends. Non-standard residues stand in square brackets, D forms with d. Residues, ends and D or L forms follow the SMILES beside them. Chains are numbered I, II in the order given. Actinocin(9to1) = Cc1c2oc3c(C)ccc(C(=O)[*:1])c3nc-2c(C(=O)[*:2])c(N)c1=O; aThr = C[C@H](O)[C@H](N)C(=O)O; NMeV = CN[C@H](C(=O)O)C(C)C; Sar = CNCC(=O)O
# System: Lewis lung carcinoma i.m., BDF1 mice, T/C %
# Assay: NCI In Vivo Anticancer Drug Screen. Data for tumor model Lewis Lung Carcinoma (intramuscular) in B6D2F1 (BDF1) mice
# In short: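 Compound given to mice with transplantable tumours; survival or tumour size compared against the vehicle control group, reported as T divided by C.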
# [1] = T/C endpoint: median survival time, dose: 1.0 mg/kg/injection, schedule: Q01DX011 (ip), vehicle: saline, higher T/C = longer survival
# [2] = T/C endpoint: median survival time, dose: 1.0 mg/kg/injection, schedule: Q01DX011 (ip), vehicle: water, higher T/C = longer survival
# [3] = T/C endpoint: median survival time, dose: 2.0 mg/kg/injection, schedule: Q01DX011 (ip), vehicle: water, higher T/C = longer survival
# [4] = T/C endpoint: median survival time, dose: 4.0 mg/kg/injection, schedule: Q01DX011 (ip), vehicle: water, higher T/C = longer survival
# [5] = T/C endpoint: median survival time, dose: 0.1 mg/kg/injection, schedule: Q01DX011 (ip), vehicle: water, higher T/C = longer survival
smiles,measurement,setting,value
C[C@H]1CN1C1=CC(=O)C(N2C[C@@H]2C)=CC1=O,T/C,"T/C endpoint: median survival time, dose: 2.0 mg/kg/injection, schedule: Q01DX011 (ip), vehicle: saline with Tween-80, higher T/C = longer survival",136 % of control
same,survivor count,"T/C endpoint: median survival time, dose: 8.0 mg/kg/injection, schedule: Q01DX011 (ip), vehicle: saline with Tween-80, higher T/C = longer survival",0 of 8
OCC1OC(n2cnc3c(=S)nc[nH]c32)C(O)C1O (stereo unspecified),survivor count,"T/C endpoint: mean tumor weight (est.), dose: 6.25 mg/kg/injection, schedule: Q01DX011 (ip), vehicle: other, higher T/C = larger tumour",5 of 8
same,survivor count,"T/C endpoint: mean tumor weight (est.), dose: 12.5 mg/kg/injection, schedule: Q01DX011 (ip), vehicle: other, higher T/C = larger tumour",5 of 8
same,survivor count,"T/C endpoint: mean tumor weight, dose: 25.0 mg/kg/injection, schedule: Q01DX011 (ip), vehicle: other, higher T/C = larger tumour",4 of 8
same,survivor count,"T/C endpoint: mean tumor weight, dose: 50.0 mg/kg/injection, schedule: Q01DX011 (ip), vehicle: other, higher T/C = larger tumour",1 of 8
same,T/C,"T/C endpoint: median survival time, dose: 3.13 mg/kg/injection, schedule: Q01DX011 (ip), vehicle: other, higher T/C = longer survival",127 % of control [7 of 8 alive]
same,survivor count,"T/C endpoint: median survival time, dose: 6.25 mg/kg/injection, schedule: Q01DX011 (ip), vehicle: other, higher T/C = longer survival",5 of 8
same,survivor count,"T/C endpoint: median survival time, dose: 12.5 mg/kg/injection, schedule: Q01DX011 (ip), vehicle: other, higher T/C = longer survival",5 of 8
same,survivor count,"T/C endpoint: median survival time, dose: 25.0 mg/kg/injection, schedule: Q01DX011 (ip), vehicle: other, higher T/C = longer survival",4 of 8 and 6 of 8
same,survivor count,"T/C endpoint: median survival time, dose: 50.0 mg/kg/injection, schedule: Q01DX011 (ip), vehicle: other, higher T/C = longer survival",1 of 8
same,survivor count,"T/C endpoint: median survival time, dose: 100.0 mg/kg/injection, schedule: Q01DX011 (ip), vehicle: other, higher T/C = longer survival",0 of 8
same,survivor count,"T/C endpoint: median survival time, dose: 200.0 mg/kg/injection, schedule: Q01DX011 (ip), vehicle: other, higher T/C = longer survival",0 of 8
same,survivor count,"T/C endpoint: median survival time, dose: 400.0 mg/kg/injection, schedule: Q01DX011 (ip), vehicle: other, higher T/C = longer survival",0 of 8
CO[C@@]12[C@H](COC(N)=O)C3=C(C(=O)C(C)=C(N)C3=O)N1C[C@@H]1N[C@@H]12,T/C,"T/C endpoint: median survival time, dose: 0.25 mg/kg/injection, schedule: Q01DX011 (ip), vehicle: water, higher T/C = longer survival",125 and 133 % of control
same,T/C,"T/C endpoint: median survival time, dose: 1.0 mg/kg/injection, schedule: Q01DX005 (ip), vehicle: other, higher T/C = longer survival",142 % of control
same,survivor count,"T/C endpoint: median survival time, dose: 1.0 mg/kg/injection, schedule: Q01DX009 (ip), vehicle: Klucel (hydroxypropylcellulose) (HPC), higher T/C = longer survival",10 of 10
same,survivor count,[1],8 of 8
same,survivor count,[2],10 of 10
same,survivor count,"T/C endpoint: median survival time, dose: 2.0 mg/kg/injection, schedule: Q01DX005 (ip), vehicle: saline, higher T/C = longer survival",4 of 8
same,survivor count,"T/C endpoint: median survival time, dose: 2.0 mg/kg/injection, schedule: Q01DX009 (ip), vehicle: Klucel (hydroxypropylcellulose) (HPC), higher T/C = longer survival",10 of 10
same,survivor count,"T/C endpoint: median survival time, dose: 2.0 mg/kg/injection, schedule: Q01DX011 (ip), vehicle: saline, higher T/C = longer survival",1 of 8
same,survivor count,[3],0 of 10 and 7 of 10
same,survivor count,"T/C endpoint: median survival time, dose: 4.0 mg/kg/injection, schedule: Q01DX005 (ip), vehicle: other, higher T/C = longer survival",0 of 8
same,survivor count,"T/C endpoint: median survival time, dose: 4.0 mg/kg/injection, schedule: Q01DX005 (ip), vehicle: saline, higher T/C = longer survival",0 of 8
same,survivor count,"T/C endpoint: median survival time, dose: 4.0 mg/kg/injection, schedule: Q01DX009 (ip), vehicle: Klucel (hydroxypropylcellulose) (HPC), higher T/C = longer survival",10 of 10
same,survivor count,"T/C endpoint: median survival time, dose: 4.0 mg/kg/injection, schedule: Q01DX011 (ip), vehicle: saline, higher T/C = longer survival",0 of 8
same,survivor count,[4],0 of 10 and 2 of 10
same,survivor count,"T/C endpoint: median survival time, dose: 8.0 mg/kg/injection, schedule: Q01DX005 (ip), vehicle: other, higher T/C = longer survival",0 of 8
same,survivor count,"T/C endpoint: median survival time, dose: 8.0 mg/kg/injection, schedule: Q01DX005 (ip), vehicle: saline, higher T/C = longer survival",0 of 8
same,survivor count,"T/C endpoint: median tumor weight (est.), dose: 2.0 mg/kg/injection, schedule: Q01DX005 (ip), vehicle: saline, higher T/C = larger tumour",4 of 8
C[C@]12CC[C@H]3[C@@H](CC[C@]4(O)C[C@@H](O)CC[C@]34C=O)[C@@]1(O)CC[C@@H]2C1=CC(=O)OC1,T/C,"T/C endpoint: median survival time, dose: 25.0 mg/kg/injection, schedule: Q01DX011 (ip), vehicle: saline with Tween-80, higher T/C = longer survival",128 % of control
same,survivor count,"T/C endpoint: median survival time, dose: 100.0 mg/kg/injection, schedule: Q01DX011 (ip), vehicle: saline with Tween-80, higher T/C = longer survival",5 of 8
same,T/C,"T/C endpoint: median survival time, dose: 200.0 mg/kg/injection, schedule: Q01DX011 (ip), vehicle: saline with Tween-80, higher T/C = longer survival",130 % of control [6 of 8 alive]
COc1cccc2c1C(=O)c1c(O)c3c(c(O)c1C2=O)C[C@@](O)(C(C)=O)C[C@@H]3OC1CC(N)C(O)C(C)O1 (stereo partly specified),survivor count,[2],5 of 8
same,survivor count,[3],2 of 6 and 6 of 8
same,survivor count,[4],0 of 6 and 0 of 8
same,survivor count,"T/C endpoint: median survival time, dose: 8.0 mg/kg/injection, schedule: Q01DX011 (ip), vehicle: water, higher T/C = longer survival",0 of 8
O=NN(CCCl)C(=O)NCc1ccc(-c2ccc(CNC(=O)N(CCCl)N=O)cc2)cc1,survivor count,"T/C endpoint: median survival time, dose: 65.0 mg/kg/injection, schedule: Q07DX003 (ip), vehicle: Klucel (hydroxypropylcellulose) (HPC), higher T/C = longer survival",8 of 8
same,survivor count,"T/C endpoint: median survival time, dose: 300.0 mg/kg/injection, schedule: Q07DX003 (ip), vehicle: Klucel (hydroxypropylcellulose) (HPC), higher T/C = longer survival",8 of 8
same,survivor count,"T/C endpoint: median survival time, dose: 500.0 mg/kg/injection, schedule: Q07DX003 (ip), vehicle: Klucel (hydroxypropylcellulose) (HPC), higher T/C = longer survival",5 of 8
O=C(c1ccccc1)C(O)(CC(c1ccccc1)[P+](c1ccccc1)(c1ccccc1)c1ccccc1)c1ccccc1 (stereo unspecified),survivor count,"T/C endpoint: mean tumor weight (est.), dose: 6.25 mg/kg/injection, schedule: Q01DX011 (ip), vehicle: saline, higher T/C = larger tumour",1 of 8
same,survivor count,"T/C endpoint: median survival time, dose: 6.25 mg/kg/injection, schedule: Q01DX011 (ip), vehicle: saline, higher T/C = longer survival",1 of 8
same,survivor count,"T/C endpoint: median survival time, dose: 12.5 mg/kg/injection, schedule: Q01DX011 (ip), vehicle: saline, higher T/C = longer survival",0 of 8
same,survivor count,"T/C endpoint: median survival time, dose: 50.0 mg/kg/injection, schedule: Q01DX011 (ip), vehicle: saline, higher T/C = longer survival",0 of 8
NCC(=O)c1ccc(O)c(O)c1,survivor count,"T/C endpoint: mean tumor weight (est.), dose: 400.0 mg/kg/injection, schedule: Q01DX011 (ip), vehicle: saline, higher T/C = larger tumour",1 of 8
same,survivor count,"T/C endpoint: mean tumor weight (est.), dose: 800.0 mg/kg/injection, schedule: Q01DX011 (ip), vehicle: saline, higher T/C = larger tumour",1 of 8
same,survivor count,"T/C endpoint: median survival time, dose: 100.0 mg/kg/injection, schedule: Q01DX011 (ip), vehicle: saline, higher T/C = longer survival",7 of 8
same,survivor count,"T/C endpoint: median survival time, dose: 400.0 mg/kg/injection, schedule: Q01DX011 (ip), vehicle: saline, higher T/C = longer survival",1 of 8
same,survivor count,"T/C endpoint: median survival time, dose: 800.0 mg/kg/injection, schedule: Q01DX011 (ip), vehicle: saline, higher T/C = longer survival",1 of 8
Cc1cc(/C=C/c2cc[n+](C)c3ccccc23)c(O)c2ncccc12,survivor count,"T/C endpoint: mean tumor weight, dose: 3.0 mg/kg/injection, schedule: Q01DX011 (ip), vehicle: saline, higher T/C = larger tumour",5 of 8
same,survivor count,"T/C endpoint: mean tumor weight, dose: 12.0 mg/kg/injection, schedule: Q01DX011 (ip), vehicle: saline, higher T/C = larger tumour",3 of 8
same,survivor count,"T/C endpoint: mean tumor weight, dose: 24.0 mg/kg/injection, schedule: Q01DX011 (ip), vehicle: saline, higher T/C = larger tumour",3 of 8
same,survivor count,"T/C endpoint: median survival time, dose: 3.0 mg/kg/injection, schedule: Q01DX011 (ip), vehicle: saline, higher T/C = longer survival",5 of 8
same,survivor count,"T/C endpoint: median survival time, dose: 12.0 mg/kg/injection, schedule: Q01DX011 (ip), vehicle: saline, higher T/C = longer survival",3 of 8
same,survivor count,"T/C endpoint: median survival time, dose: 24.0 mg/kg/injection, schedule: Q01DX011 (ip), vehicle: saline, higher T/C = longer survival",3 of 8
same,survivor count,"T/C endpoint: median survival time, dose: 48.0 mg/kg/injection, schedule: Q01DX011 (ip), vehicle: saline, higher T/C = longer survival",0 of 8
"Cc1c2oc3c(C)ccc(C(=O)N[C@@H]4C(=O)N[C@H](C(C)C)C(=O)N5CCC[C@H]5C(=O)N(C)CC(=O)N(C)[C@@H](C(C)C)C(=O)O[C@H]4C)c3nc-2c(C(=O)N[C@@H]2C(=O)N[C@H](C(C)C)C(=O)N3CCC[C@H]3C(=O)N(C)CC(=O)N(C)[C@@H](C(C)C)C(=O)O[C@H]2C)c(N)c1=O (I: [aThr][dV]P[Sar][NMeV] / II: [aThr][dV]P[Sar][NMeV]; ester I:1-I:C, II:1-II:C; linker I:N-II:N via Actinocin(9to1))",survivor count,"T/C endpoint: median survival time, dose: 0.08 mg/kg/injection, schedule: Q01DX011 (ip), vehicle: water, higher T/C = longer survival",4 of 8
same,T/C,[5],130 % of control
same,survivor count,[5],6 of 10
same,survivor count,"T/C endpoint: median survival time, dose: 0.12 mg/kg/injection, schedule: Q01DX011 (ip), vehicle: saline, higher T/C = longer survival",0 of 8
same,survivor count,"T/C endpoint: median survival time, dose: 0.2 mg/kg/injection, schedule: Q01DX011 (ip), vehicle: water, higher T/C = longer survival",0 of 10 and 2 of 10
same,survivor count,"T/C endpoint: median survival time, dose: 0.25 mg/kg/injection, schedule: Q01DX011 (ip), vehicle: saline, higher T/C = longer survival",0 of 8
same,survivor count,"T/C endpoint: median survival time, dose: 0.4 mg/kg/injection, schedule: Q01DX011 (ip), vehicle: water, higher T/C = longer survival",0 of 10
same,survivor count,"T/C endpoint: median survival time, dose: 0.5 mg/kg/injection, schedule: Q01DX011 (ip), vehicle: saline, higher T/C = longer survival",0 of 8
same,survivor count,[1],0 of 8
